Data: PMC8901925
No constants are given. Whether binding was seen depends on the method and setting. In cells and extracts the contact can be indirect. A yes stands for co-enrichment or nearness to the bait. Other partners may have been found. Tags and fused reporters may be left off the sequences shown.

By UniProt entry, the sequences of proteins in these tests, tags left out.
UniProt P35579: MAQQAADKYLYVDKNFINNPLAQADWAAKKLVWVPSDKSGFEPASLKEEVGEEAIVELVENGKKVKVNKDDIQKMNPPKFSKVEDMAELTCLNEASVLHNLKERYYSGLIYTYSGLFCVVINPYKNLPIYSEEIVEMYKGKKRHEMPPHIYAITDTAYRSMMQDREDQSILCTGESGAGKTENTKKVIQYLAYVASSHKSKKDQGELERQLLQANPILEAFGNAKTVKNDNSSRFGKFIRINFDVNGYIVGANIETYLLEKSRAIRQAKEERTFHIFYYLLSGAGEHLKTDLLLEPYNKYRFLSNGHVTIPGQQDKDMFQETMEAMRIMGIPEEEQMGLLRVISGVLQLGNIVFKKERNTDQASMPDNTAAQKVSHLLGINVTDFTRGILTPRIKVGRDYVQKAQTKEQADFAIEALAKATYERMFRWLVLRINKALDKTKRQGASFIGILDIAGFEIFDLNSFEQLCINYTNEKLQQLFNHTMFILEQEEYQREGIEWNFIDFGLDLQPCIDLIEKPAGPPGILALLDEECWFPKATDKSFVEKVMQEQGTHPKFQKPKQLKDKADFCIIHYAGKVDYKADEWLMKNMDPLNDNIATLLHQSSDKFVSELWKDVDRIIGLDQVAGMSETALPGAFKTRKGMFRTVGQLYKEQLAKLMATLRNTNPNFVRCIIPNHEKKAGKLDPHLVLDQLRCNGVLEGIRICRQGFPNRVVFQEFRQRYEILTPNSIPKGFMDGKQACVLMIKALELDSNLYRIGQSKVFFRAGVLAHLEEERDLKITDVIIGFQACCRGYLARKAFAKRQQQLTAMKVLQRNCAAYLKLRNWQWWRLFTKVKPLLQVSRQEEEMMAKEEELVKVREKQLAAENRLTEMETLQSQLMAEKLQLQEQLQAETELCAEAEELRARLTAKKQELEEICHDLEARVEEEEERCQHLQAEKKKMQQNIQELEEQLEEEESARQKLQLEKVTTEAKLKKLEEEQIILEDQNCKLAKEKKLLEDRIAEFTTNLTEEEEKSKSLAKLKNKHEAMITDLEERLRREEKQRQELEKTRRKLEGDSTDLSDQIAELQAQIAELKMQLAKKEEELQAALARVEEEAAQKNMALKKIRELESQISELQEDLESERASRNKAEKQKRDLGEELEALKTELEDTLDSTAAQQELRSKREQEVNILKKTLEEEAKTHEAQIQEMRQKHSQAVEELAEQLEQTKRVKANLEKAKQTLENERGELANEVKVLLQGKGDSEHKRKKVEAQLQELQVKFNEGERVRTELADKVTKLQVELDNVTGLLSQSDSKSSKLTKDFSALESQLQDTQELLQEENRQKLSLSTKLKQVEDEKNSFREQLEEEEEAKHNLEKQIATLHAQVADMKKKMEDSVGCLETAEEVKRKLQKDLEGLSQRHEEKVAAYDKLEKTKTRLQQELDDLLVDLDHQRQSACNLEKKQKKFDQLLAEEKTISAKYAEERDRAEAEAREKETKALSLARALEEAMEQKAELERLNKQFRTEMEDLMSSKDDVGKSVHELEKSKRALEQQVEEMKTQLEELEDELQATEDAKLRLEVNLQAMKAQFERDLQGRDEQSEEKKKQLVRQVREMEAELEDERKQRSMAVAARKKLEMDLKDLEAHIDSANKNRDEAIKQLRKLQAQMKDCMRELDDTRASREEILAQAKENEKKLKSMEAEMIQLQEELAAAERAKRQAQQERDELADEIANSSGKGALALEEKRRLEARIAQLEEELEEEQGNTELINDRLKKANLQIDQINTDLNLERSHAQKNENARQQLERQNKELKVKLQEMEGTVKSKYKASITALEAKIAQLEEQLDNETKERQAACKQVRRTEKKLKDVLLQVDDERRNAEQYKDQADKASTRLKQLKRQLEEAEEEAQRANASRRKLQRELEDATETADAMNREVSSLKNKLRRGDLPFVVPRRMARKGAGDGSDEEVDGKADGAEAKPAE

Target: T1, Glycoprotein prostaglandin D2 synthase (PTGDS) (human (endogenous in LY1 and LY3)) (UniProt P41222)
T1 sequence (chain, N-glycosylation at Asn51 and Asn78): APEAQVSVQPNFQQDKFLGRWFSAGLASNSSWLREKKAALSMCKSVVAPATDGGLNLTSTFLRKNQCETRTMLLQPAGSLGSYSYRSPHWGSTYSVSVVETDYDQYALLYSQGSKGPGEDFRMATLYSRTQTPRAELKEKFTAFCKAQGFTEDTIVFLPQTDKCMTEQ
Assay: affinity purification with mass spectrometry; co-immunoprecipitation of PTGDS (Pierce Co-Immunoprecipitation Kit) from DLBCL cells, mass spectrometry by Novogene

MYH9 (from UniProt P35579 1-1960)
binding: binds
